Screening data, single-dose tests

The chains behind the UniProt entries cited, without tags or fusion partners.
UniProt P9WPC5, whole entry: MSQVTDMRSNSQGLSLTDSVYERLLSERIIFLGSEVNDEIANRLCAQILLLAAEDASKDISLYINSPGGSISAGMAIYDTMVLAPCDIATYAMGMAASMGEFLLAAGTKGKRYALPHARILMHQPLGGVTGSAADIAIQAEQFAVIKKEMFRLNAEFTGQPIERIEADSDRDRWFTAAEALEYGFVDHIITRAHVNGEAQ
UniProt P9WPC3, whole entry partner: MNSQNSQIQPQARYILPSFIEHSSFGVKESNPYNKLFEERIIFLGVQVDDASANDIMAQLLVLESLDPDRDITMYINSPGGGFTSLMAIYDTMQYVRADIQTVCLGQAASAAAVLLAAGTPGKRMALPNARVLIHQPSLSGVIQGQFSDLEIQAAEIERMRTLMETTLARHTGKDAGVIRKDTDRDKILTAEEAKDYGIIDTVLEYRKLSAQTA

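Protease assay of ClpP1P2, read by the AMC dye that it sets free. Target: ClpP1P2, Mycobacterium tuberculosis (UniProt P9WPC5 and UniProt P9WPC3). Concentration: 50 µM. Direction is inferred from only a few compounds that gave an IC50; most scored high, so higher reads as stronger inhibition. Most other retested compounds had strongly negative values. About 69,000 compounds were tested under these conditions; 0.015% (about 10) showed 50% or more at least once.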

Values are the deposited “Percent Effect”, in %.
The record does not define 0% and 100%; most values in the screen are far below 50% and negative numbers occur (in some assays of this library far below -100).
This is an unselected part of the compounds tested.

SMILES,percent effect
CC1CCCN1Cc1cccc(C(=O)Nc2ccc3[nH]c(=O)oc3c2)c1 (configuration not stated),9.387
O=C([C@H]1C[C@H]2OCC[C@H]2N(Cc2cccnc2)C1)N1CCCCO1,-8.952
CCc1ncc2c(n1)CN(CC(=O)Nc1nnc(C)s1)CC2,-10.94
CCS(=O)(=O)N1CCc2ccc(NC(=O)NCc3ccccc3)cc21,-0.33
c1cnn(CC2CN(Cc3noc(C4CC4)n3)CCO2)c1 (configuration not stated),1.567
CCn1cc(CN2CCCN(C(=O)c3ccc(C)nc3)CC2)cn1,-33.45
O=C(NCCNc1cnccn1)c1scnc1Cl,1.193
Cn1ccnc1CN1CCC(Cc2ccccn2)CC1,-10.72
CN(C)CCn1c(=O)oc2ccc(NC(=O)C3CCCO3)cc21 (configuration not stated),1.355
CC(C(=O)NC1CCCC1)S(=O)(=O)Cc1noc(C(C)(C)C)n1 (configuration not stated),7.9
O=C(NCc1nc(C2CC2)no1)N1CCOC(c2ccccc2F)C1 (configuration not stated),-5.261
CO[C@H]1CO[C@@]2(CCCN(C(=O)C3=CCCCC3)C2)C1,-3.521
CC(CNC(=O)c1ccn(-c2ccc(F)cc2)n1)Cn1cccn1 (configuration not stated),-4.246
CC(Nc1ccc(Oc2cccc(C#N)c2)cc1)C(=O)NC1CC1 (configuration not stated),0.5262
O=C(Cc1ccc(Cl)cc1)N1CCC(O)(C(F)(F)F)C1 (configuration not stated),-0.2783
O=C(c1ccc(CN2CCCC2)cc1)N1CCCC(n2cccn2)C1 (configuration not stated),3.57
COc1cc(O)cc2c1C(=O)CC(c1ccc(O)cc1)O2 (configuration not stated),-8.605
O=C(c1nnn(-c2ccc(C(F)(F)F)cc2)n1)N1CCC(O)CC1,-7.756
CCCS(=O)(=O)NCC(O)c1c(Cl)cccc1Cl (configuration not stated),3.637
COc1c(CNC2CCN(C(=O)C3CC3)CC2)c(C(C)C)nn1C,5.029
CS(=O)(=O)N1CCCC(C(=O)Nc2cnn(Cc3ccc(Cl)cc3)c2)C1 (configuration not stated),1.574
CCn1nc(C)c(-c2cncn2CCN(C)C2CCCC2)c1C,-22.38
NC(=O)c1cc(C2CCCN(CCOCC(F)(F)F)C2)n[nH]1 (configuration not stated),-5.974
Cc1nn(-c2ccccn2)c2c1C(c1cnn(C)c1)SCC(=O)N2 (configuration not stated),0.1431
CC(C)NC(=O)N1CCC(c2nnc3ccc(C(=O)N(C)C)cn23)C1 (configuration not stated),-3.555
CS(=O)(=O)N1CCCCC12CCCN(Cc1nccs1)C2 (configuration not stated),0.04904
Cc1cccc(-c2noc(CN3CCCC3Cn3cncn3)n2)c1 (configuration not stated),-42.94
O=C(c1cccnc1)N1CCCC1c1nc(O)cc(-c2ccccn2)n1 (configuration not stated),-11.27
Cc1cccc(OC2CCN(C(=O)CNC(=O)N(C)C)CC2)c1,-9.915
O=C([C@@H]1CCO[C@@H]2CCN(Cc3ccco3)C[C@H]21)N1CCCCO1,-6.765
CC(=O)N(C)Cc1cccc(NC(=O)CCCc2nc(C(C)C)no2)c1,5.201
CN(C(=O)CNc1ccc(C#N)cc1)C1CCCCC1,1.99
Cc1nc(C)n(CC2CCCCN2CCC(=O)Nc2cc(C)on2)n1 (configuration not stated),9.137
CC(C)c1nnc2n1CCN(C(=O)c1cccc(OCC(N)=O)c1)C2,13.21
Cc1cnn(C2CCCN(C(=O)CCCc3ccccn3)C2)c1 (configuration not stated),-8.777
Cc1noc([C@H]2COC[C@H]3CN(C(=O)Cc4cccs4)C[C@H]32)n1,-9.329
O=C(NCCc1ccccc1)c1cn(CCNCc2cccnc2)nn1,-18.22
O=C(CC1CC1)N1C[C@H]2CCN[C@H]2C1,-10.63
Cc1ccc(C(=O)N(C)Cc2csc(Br)c2)c(=O)[nH]1,-7.332
Cc1nc(C(=O)N(C)C)nn1-c1ccccc1C(C)C,2.698
Cc1nc(N2CCCC2)nc2c1CCN(Cc1ccoc1)CC2,-9.581
CC(C)(C)NCC(=O)N1CCCC(n2ccnc2)C1 (configuration not stated),-3.586
CN(CC1COc2ccccc2O1)C(=O)c1ccc(-c2cn[nH]c2)nc1 (configuration not stated),-9.445
CCc1nc(CN(CCc2ccccc2)C2CCN(C)CC2)no1,-19.07
CCN(Cc1nc2c(cnn2C)c(=O)[nH]1)c1ccc(OC)c(OC)c1,19.05
CCS(=O)(=O)N1CCC2(CCCN(Cc3ccc(F)c(F)c3)C2=O)C1 (configuration not stated),-12.9
O=C(Nc1ccc(F)c(-n2cccc2)c1)NC1(CCO)CCOCC1,0.6354
CCc1noc(C)c1C(=O)N1CCCCC1Cn1cc(C)cn1 (configuration not stated),11.11
CN(C)C(=O)CN1CCCC1c1nccnc1Nc1ccccn1 (configuration not stated),-5.913
CC(C)CN1CC(c2nc(-c3ccsc3)c[nH]2)CC1=O (configuration not stated),-7.763
CCN1CCC(CNC(=O)C2(c3cccc(C)c3)CCCCC2)CC1,-5.584
NC(=O)CN1CCCC(c2ccnc(Nc3ncccn3)c2)C1 (configuration not stated),-6.869
O=C(CCN1CCCO1)N1CC[C@@H](CNC(=O)N2CCCC2)[C@H](O)C1,7.028
CCn1c(C2CCN(C(=O)c3cc(CC(C)C)on3)CC2)nn(C)c1=O,18.28
CC(C)c1noc(CN2CCC(c3ccnn3CCO)CC2)n1,-25.58
CN(c1ccc(C(C)(C)C)cc1)S(=O)(=O)c1cc(C(=O)O)cs1,5.957
CC1=C(C(N)=O)C(c2cn(C)nc2C)N2C(=O)CSC2=N1 (configuration not stated),-3.44
O=C1CC(c2ccccc2)c2c(n3ccsc3nc2=O)N1 (configuration not stated),4.014
COc1ccccc1CCNC(=O)N(C)C(C)CS(C)(=O)=O (configuration not stated),-5.261
CCN(CC)S(=O)(=O)N1CCc2nc(C3CCNCC3)ncc2C1,-5.959
CCS(=O)(=O)c1ccccc1N1CCC(NC(C)=O)CC1,6.858
O=C(CC1CCCC1)N1CCCC1c1ccc(CN2CCOCC2)cn1 (configuration not stated),-14.62
Cc1ccc(CN(C)C(=O)CCNS(=O)(=O)c2cccnc2)cc1,2.833
CCc1nnc(CNC2CCc3nc(C(C)C)nn3C2)o1 (configuration not stated),-27.56
CC(c1ccco1)N(C(=O)CNc1ccc(C#N)cc1)C1CC1 (configuration not stated),-20.15
CCCC(=O)Nc1cccc(C(=O)N(C)CCCC2CCCO2)c1 (configuration not stated),-15.78
COc1cccc(-c2csc(Cn3ccc(=O)[nH]c3=O)n2)c1,2.418
CCc1nnc(CN(C)Cc2nc(-c3ccccc3Cl)oc2C)o1,-14.17
CN(C)c1cc(C(=O)N2CCCC(n3cccn3)C2)ccn1 (configuration not stated),-0.5154
c1cc(CNCc2ccnc(N3CCCCC3)c2)c2c(c1)OCCCO2,7.885
Cc1ncsc1CN1C[C@H](C(=O)NCC2CC2)[C@@H]2CCO[C@@H]2C1,-12.39
CNc1ncc(CN(C)C(=O)[C@@]23CNC[C@@H]2CN(C(=O)C2CC2)C3)cn1,-1.301
COc1cccc(CNCc2ccc(NC(=O)NC(C)C)cc2)c1,-7.837
CN(C)C(=O)c1c[nH]nc1C1CCN(S(=O)(=O)c2ccccc2)CC1,11.91
NC(=O)c1cc2c(nc1Oc1ccc(CN3CCCC3)cc1F)CCC2,2.184
Cc1ccc(CNCC2CCCn3ccnc32)s1 (configuration not stated),-4.591
O=C([C@@H]1CCO[C@@H]2CCN(Cc3cccnc3)C[C@H]21)N1CCCCO1,-0.1913
COc1ccc(-c2nc(CNCCn3cccn3)cs2)cc1,-17.45
COCC1CN(Cc2ccc(F)cc2)Cc2nnn(CC3CC3)c21 (configuration not stated),-7.681
NCCc1cn(Cc2ccccn2)c2ccccc12,-2.914
CCC(O)CN1CCN(C(=O)c2cccn2Cc2ccncc2)CC1 (configuration not stated),-15.14
O=C1NC2(CCNCC2)CC1c1cccnc1 (configuration not stated),-0.6067
CCn1cc(C(=O)N2CCCC(c3[nH]ncc3S(C)(=O)=O)C2)cn1 (configuration not stated),5.463
COc1ccccc1C1CCN(c2ccc3cc[nH]c3n2)CC1,3.49
CCc1nc(CN2CCCC2c2c(C)nn(C)c2OC)no1 (configuration not stated),17.69
COCC1CN(S(C)(=O)=O)Cc2ncn(CC3CC3)c21 (configuration not stated),4.892
Cc1cc(CN(C)C(=O)c2ccnc(N(C)C)c2)no1,1.237
O=C1CC(c2cccc(O)c2)c2sc(C(=O)O)c(-c3ccccc3)c2N1 (configuration not stated),15
O=C(COCC(=O)N(c1ccccc1)c1ccccc1)N1CCCCC1,-1.228

Measurements from “University of Dundee, Small-Polar-MMV Screening Library” (2021), ChEMBL document CHEMBL3988442.